Results are given in words; binding and its absence hold for the method and conditions named. In cells and extracts the contact can be indirect. Some binding calls cover weakened binding; strength is not graded here.
Tests used:
[1] = biological target: Tribbles homolog 3 (TRIB3) (human (endogenous in MDA-MB-231)) (UniProt Q96RU7); assay: co-IP; MDA-MB-231 cells treated with DMSO for 24 h, lysed in RIPA buffer with PMSF; immunoprecipitation with anti-TRIB3 or anti-AKT1 antibody, Protein A/G agarose beads, Western blot
[2] = biological target: Tribbles homolog 3 (TRIB3) (human (endogenous in MDA-MB-231)) (UniProt Q96RU7); assay: condition: only cells treated with 20 μM PB for 24 h; co-IP; MDA-MB-231 cells treated with 20 μM Parishin B (PB) for 24 h, lysed in RIPA buffer with PMSF; immunoprecipitation with anti-TRIB3 or anti-AKT1 antibody, Protein A/G agarose beads, Western blot

Chains of the proteins cited; added tags and fusions are not shown.
UniProt Q96RU7: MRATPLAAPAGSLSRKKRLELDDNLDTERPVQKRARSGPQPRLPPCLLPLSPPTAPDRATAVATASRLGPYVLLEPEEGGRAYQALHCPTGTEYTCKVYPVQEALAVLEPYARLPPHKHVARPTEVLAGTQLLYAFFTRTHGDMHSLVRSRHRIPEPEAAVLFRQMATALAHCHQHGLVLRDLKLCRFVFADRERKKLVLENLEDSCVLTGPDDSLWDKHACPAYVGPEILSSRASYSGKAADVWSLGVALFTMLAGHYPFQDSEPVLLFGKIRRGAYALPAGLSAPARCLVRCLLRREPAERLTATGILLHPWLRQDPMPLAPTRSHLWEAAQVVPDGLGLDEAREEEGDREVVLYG
UniProt P31749: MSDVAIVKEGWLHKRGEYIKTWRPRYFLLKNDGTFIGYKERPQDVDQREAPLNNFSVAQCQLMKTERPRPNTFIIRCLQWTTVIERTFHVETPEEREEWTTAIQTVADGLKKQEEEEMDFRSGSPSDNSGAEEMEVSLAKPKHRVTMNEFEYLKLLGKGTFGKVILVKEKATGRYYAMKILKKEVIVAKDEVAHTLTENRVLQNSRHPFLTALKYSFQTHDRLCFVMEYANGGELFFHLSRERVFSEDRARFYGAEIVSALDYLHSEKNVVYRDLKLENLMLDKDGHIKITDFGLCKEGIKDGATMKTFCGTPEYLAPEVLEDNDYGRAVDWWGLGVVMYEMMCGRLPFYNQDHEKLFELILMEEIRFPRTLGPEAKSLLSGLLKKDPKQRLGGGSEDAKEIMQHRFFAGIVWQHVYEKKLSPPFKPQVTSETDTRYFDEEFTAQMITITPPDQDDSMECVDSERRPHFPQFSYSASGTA

binding [1]: binds
binding [2]: no binding
Substance: AKT1 (from UniProt P31749 1-480)

Source: article PMC11775015, “Parishin B blocking TRIB3-AKT1 interaction inhibits breast cancer lung metastasis” (Frontiers in Pharmacology, 2025)
